Measurements taken from EP1948196B1, “USE OF TETRAORGANOSILICON COMPOUNDS” (Salama, Zoser B., priority 2005, dated 2007).
At least one peptide structure holds a part that was inferred or is arguable (an end, a ring closure or a residue). Some entries repeat one wording, which the source may state once for all of them. Numbered stars: 1 amine (or outer) side, 2 acyl side, 3 side chain; on linkers, the order of the positions; unused ones are H or OH. Bridge positions count the residues as written; N and C are the ends. Peptide text beside a SMILES is read from it. I, II: the chains in the order shown. X3 = CC(C)[Si](O[*:1])(O[*:2])C(C)C; OSiEt2O = CC[Si](CC)(O[*:1])O[*:2]

How the values were obtained:
Plattenepithelkarzinome = test: Effect on squamous cell carcinomas
Osteosarkome = test: Effect on osteosarcomas

| Compound | Wirkung gegen Plattenepithelkarzinome (Plattenepithelkarzinome) | Wirkung auf Osteosarkome (Osteosarkome) |
| --- | --- | --- |
| CC(C)[Si](OC(=O)[C@H](C)NC(=O)[C@H](C)NC(=O)[C@H](C)NC(=O)[C@H](C)NC(=O)[C@H](C)N)(OC(=O)[C@H](C)NC(=O)[C@H](C)NC(=O)[C@H](C)NC(=O)[C@H](C)NC(=O)[C@H](C)N)C(C)C [Diisopropyl bis(pentaalanyl)silylester] | zeigen eine Wirkung | – |
| CC(C)[Si](OC(=O)[C@H](C)NC(=O)[C@H](C)NC(=O)[C@H](C)NC(=O)[C@H](C)NC(=O)[C@H](C)NC(=O)[C@H](C)NC(=O)[C@H](C)N)(OC(=O)[C@H](C)NC(=O)[C@H](C)NC(=O)[C@H](C)NC(=O)[C@H](C)NC(=O)[C@H](C)NC(=O)[C@H](C)NC(=O)[C@H](C)N)C(C)C [Diisopropyl bis(heptaalanyl)silylester] (I: H-AAAAAAA / II: H-AAAAAAA; linker I:C-II:C via X3) | – | zeigen eine Wirkung |
| CC[Si](CC)(OC(=O)[C@H](C)NC(=O)[C@H](C)NC(=O)[C@H](C)NC(=O)[C@H](C)NC(=O)[C@H](C)NC(=O)[C@H](C)NC(=O)[C@H](C)NC(=O)[C@H](C)NC(=O)[C@H](C)N)OC(=O)[C@H](C)NC(=O)[C@H](C)NC(=O)[C@H](C)NC(=O)[C@H](C)NC(=O)[C@H](C)NC(=O)[C@H](C)NC(=O)[C@H](C)NC(=O)[C@H](C)NC(=O)[C@H](C)N [Diethyl bis(nonaalanyl)silylester] (I: H-AAAAAAAAA / II: H-AAAAAAAAA; linker I:C-II:C via OSiEt2O) | zeigen eine Wirkung | – |
| CC(C)[Si](OC(=O)CNC(=O)CNC(=O)CNC(=O)CNC(=O)CNC(=O)CNC(=O)CNC(=O)CNC(=O)CNC(=O)CN)(OC(=O)CNC(=O)CNC(=O)CNC(=O)CNC(=O)CNC(=O)CNC(=O)CNC(=O)CNC(=O)CNC(=O)CN)C(C)C [Disopropyl bis(decaglycyl)silylester] | – | zeigen eine Wirkung |
| CC(C)[Si](OC(=O)CNC(=O)CNC(=O)CNC(=O)CN)(OC(=O)CNC(=O)CNC(=O)CNC(=O)CN)C(C)C [Diisopropyl bis(tetraglycyl)silylester] | – | zeigen eine Wirkung |
| CC(C)[Si](OC(=O)[C@H](C)NC(=O)[C@H](C)NC(=O)[C@H](C)NC(=O)[C@H](C)N)(OC(=O)[C@H](C)NC(=O)[C@H](C)NC(=O)[C@H](C)NC(=O)[C@H](C)N)C(C)C [Diisopropyl bis(tetraalanyl)silylester] | zeigen eine Wirkung | – |
| CC[Si](CC)(OC(=O)[C@H](C)NC(=O)[C@H](C)NC(=O)[C@H](C)NC(=O)[C@H](C)NC(=O)[C@H](C)NC(=O)[C@H](C)NC(=O)[C@H](C)NC(=O)[C@H](C)N)OC(=O)[C@H](C)NC(=O)[C@H](C)NC(=O)[C@H](C)NC(=O)[C@H](C)NC(=O)[C@H](C)NC(=O)[C@H](C)NC(=O)[C@H](C)NC(=O)[C@H](C)N [Diethyl bis(octaalanyl)silylester] (I: H-AAAAAAAA / II: H-AAAAAAAA; linker I:C-II:C via OSiEt2O) | zeigen eine Wirkung | – |
| CC(C)[Si](OC(=O)CNC(=O)CNC(=O)CNC(=O)CNC(=O)CN)(OC(=O)CNC(=O)CNC(=O)CNC(=O)CNC(=O)CN)C(C)C [Diisopropyl bis(pentaglycyl)silylester] | – | zeigen eine Wirkung |
| CCC[Si](CCC)(OC(=O)[C@H](C)NC(=O)[C@H](C)NC(=O)[C@H](C)N)OC(=O)[C@H](C)NC(=O)[C@H](C)NC(=O)[C@H](C)N [Dipropyl bis(trialanyl)silylester] | zeigen eine Wirkung | – |
| CC(C)[Si](OC(=O)[C@H](C)NC(=O)[C@H](C)NC(=O)[C@H](C)NC(=O)[C@H](C)NC(=O)[C@H](C)NC(=O)[C@H](C)NC(=O)[C@H](C)NC(=O)[C@H](C)NC(=O)[C@H](C)NC(=O)[C@H](C)N)(OC(=O)[C@H](C)NC(=O)[C@H](C)NC(=O)[C@H](C)NC(=O)[C@H](C)NC(=O)[C@H](C)NC(=O)[C@H](C)NC(=O)[C@H](C)NC(=O)[C@H](C)NC(=O)[C@H](C)NC(=O)[C@H](C)N)C(C)C [Diisopropyl bis(decaalanyl)silylester] | zeigen eine Wirkung | – |
| CC(C)[Si](OC(=O)[C@H](C)NC(=O)[C@H](C)NC(=O)[C@H](C)NC(=O)[C@H](C)NC(=O)[C@H](C)NC(=O)[C@H](C)N)(OC(=O)[C@H](C)NC(=O)[C@H](C)NC(=O)[C@H](C)NC(=O)[C@H](C)NC(=O)[C@H](C)NC(=O)[C@H](C)N)C(C)C [Diisopropyl bis(hexaalanyl)silylester] | – | zeigen eine Wirkung |
| CCC[Si](CCC)(OC(=O)[C@H](C)NC(=O)[C@H](C)NC(=O)[C@H](C)NC(=O)[C@H](C)NC(=O)[C@H](C)N)OC(=O)[C@H](C)NC(=O)[C@H](C)NC(=O)[C@H](C)NC(=O)[C@H](C)NC(=O)[C@H](C)N [Dipropyl bis(pentaalanyl)silylester] | zeigen eine Wirkung | – |
| CC(C)[Si](OC(=O)CNC(=O)CNC(=O)CNC(=O)CNC(=O)CNC(=O)CNC(=O)CN)(OC(=O)CNC(=O)CNC(=O)CNC(=O)CNC(=O)CNC(=O)CNC(=O)CN)C(C)C [Diisopropyl bis(heptaglycyl)silylester] (I: H-GGGGGGG / II: H-GGGGGGG; linker I:C-II:C via X3) | – | zeigen eine Wirkung |
| CC(C)[Si](OC(=O)CNC(=O)CNC(=O)CNC(=O)CNC(=O)CNC(=O)CN)(OC(=O)CNC(=O)CNC(=O)CNC(=O)CNC(=O)CNC(=O)CN)C(C)C [Diisopropyl bis(hexaglycyl)silylester] | – | zeigen eine Wirkung |
| CC(C)[Si](OC(=O)CNC(=O)CNC(=O)CNC(=O)CNC(=O)CNC(=O)CNC(=O)CNC(=O)CN)(OC(=O)CNC(=O)CNC(=O)CNC(=O)CNC(=O)CNC(=O)CNC(=O)CNC(=O)CN)C(C)C [Disopropyl bis(octaglycyl)silylester] (I: H-GGGGGGGG / II: H-GGGGGGGG; linker I:C-II:C via X3) | – | zeigen eine Wirkung |
| CC[Si](CC)(OC(=O)[C@H](C)NC(=O)[C@H](C)NC(=O)[C@H](C)NC(=O)[C@H](C)NC(=O)[C@H](C)NC(=O)[C@H](C)NC(=O)[C@H](C)NC(=O)[C@H](C)NC(=O)[C@H](C)NC(=O)[C@H](C)N)OC(=O)[C@H](C)NC(=O)[C@H](C)NC(=O)[C@H](C)NC(=O)[C@H](C)NC(=O)[C@H](C)NC(=O)[C@H](C)NC(=O)[C@H](C)NC(=O)[C@H](C)NC(=O)[C@H](C)NC(=O)[C@H](C)N [Diethyl bis(decaalanyl)silylester] | zeigen eine Wirkung | – |
| CC(C)[Si](OC(=O)[C@H](C)NC(=O)[C@H](C)NC(=O)[C@H](C)NC(=O)[C@H](C)NC(=O)[C@H](C)NC(=O)[C@H](C)NC(=O)[C@H](C)NC(=O)[C@H](C)N)(OC(=O)[C@H](C)NC(=O)[C@H](C)NC(=O)[C@H](C)NC(=O)[C@H](C)NC(=O)[C@H](C)NC(=O)[C@H](C)NC(=O)[C@H](C)NC(=O)[C@H](C)N)C(C)C [Diisopropyl bis(octaalanyl)silylester] (I: H-AAAAAAAA / II: H-AAAAAAAA; linker I:C-II:C via X3) | – | zeigen eine Wirkung |
| CC(C)[Si](OC(=O)CNC(=O)CNC(=O)CNC(=O)CNC(=O)CNC(=O)CNC(=O)CNC(=O)CNC(=O)CN)(OC(=O)CNC(=O)CNC(=O)CNC(=O)CNC(=O)CNC(=O)CNC(=O)CNC(=O)CNC(=O)CN)C(C)C [Disopropyl bis(nonaglycyl)silylester] | – | zeigen eine Wirkung |
